Measured values from paper PMC11472067.
These are yes or no findings as the source states them, for the method shown. Some entries that bind do so weakly or less than the wild type. For part of these data: Where a sequence is shown, tags or fusion partners need not be part of it.

By UniProt entry, the sequences of proteins in these tests, tags left out. Where a name states a change or a piece, a line headed by the entry shows the natural chain unless it says otherwise.
UniProt Q13185: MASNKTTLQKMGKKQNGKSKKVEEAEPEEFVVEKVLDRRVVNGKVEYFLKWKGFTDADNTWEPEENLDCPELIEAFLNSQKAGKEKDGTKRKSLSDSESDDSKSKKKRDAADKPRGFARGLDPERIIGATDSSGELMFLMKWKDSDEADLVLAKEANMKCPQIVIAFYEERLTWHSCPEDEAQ
UniProt P83916: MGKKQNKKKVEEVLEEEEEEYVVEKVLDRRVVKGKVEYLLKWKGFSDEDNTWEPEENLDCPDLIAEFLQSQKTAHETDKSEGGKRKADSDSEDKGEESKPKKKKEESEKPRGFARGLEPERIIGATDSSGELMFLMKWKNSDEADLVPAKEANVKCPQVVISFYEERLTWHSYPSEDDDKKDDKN
UniProt P45973: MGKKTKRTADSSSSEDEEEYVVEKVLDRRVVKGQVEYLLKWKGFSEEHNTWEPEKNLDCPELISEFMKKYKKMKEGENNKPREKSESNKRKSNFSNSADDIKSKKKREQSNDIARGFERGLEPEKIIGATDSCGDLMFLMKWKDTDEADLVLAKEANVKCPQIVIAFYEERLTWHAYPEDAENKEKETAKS

Experiments:
Experiment in all cases: cross raster image correlation spectroscopy (cross RICS, fluorescence fluctuation spectroscopy); two-channel FFS in live HeLa nuclei stably expressing eGFP-HP1α_(I165E) (endogenous HP1α knocked down), transiently transfected with an mCherry or RFP657 tagged partner; ratio of cross RICS amplitude to the limiting channel's RICS amplitude gives the fraction of heterocomplex
[1] = biological target: T1, histone-lysine N-methyltransferase (SUV39H1) tagged to mCherry (SUV39H1-mCh) (UniProt O43463)
T1 sequence: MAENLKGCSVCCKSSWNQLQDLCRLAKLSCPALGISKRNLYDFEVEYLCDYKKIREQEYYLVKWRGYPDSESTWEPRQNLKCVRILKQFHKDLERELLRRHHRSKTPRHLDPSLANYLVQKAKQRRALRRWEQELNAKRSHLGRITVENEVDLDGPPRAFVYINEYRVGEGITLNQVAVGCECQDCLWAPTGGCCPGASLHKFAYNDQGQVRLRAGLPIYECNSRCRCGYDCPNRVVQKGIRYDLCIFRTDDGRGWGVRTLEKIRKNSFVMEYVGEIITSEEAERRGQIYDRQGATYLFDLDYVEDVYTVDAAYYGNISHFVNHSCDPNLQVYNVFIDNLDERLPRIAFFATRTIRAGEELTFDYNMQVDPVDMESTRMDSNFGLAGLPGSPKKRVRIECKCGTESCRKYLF

HP1γ-mCh = HP1γ-mCh (UniProt Q13185)
HP1β-mCh = HP1β-mCh (UniProt P83916)

binding [1]: binds
binding (HP1γ-mCh): no binding
binding (HP1β-mCh): no binding
Substance: eGFP tagged to HP1α dimer mutant I165E (eGFP-HP1α_(I165E)) (from UniProt P45973 1-191)
